Assay results taken from paper PMC6381116.
No constants are given. Whether binding was seen depends on the method and setting. Binding seen in cells or lysates may run through a third protein. Tags and fused reporters may be left off the sequences shown.

Legend:
[1] = biological target: T1, HA:AGO10 (Arabidopsis thaliana) (UniProt Q9XGW1); test: co-IP; transient co-expression in N. benthamiana in the presence of PRMT5 (Supplementary Fig. 11a, 11c; Fig. 4b)
T1 sequence: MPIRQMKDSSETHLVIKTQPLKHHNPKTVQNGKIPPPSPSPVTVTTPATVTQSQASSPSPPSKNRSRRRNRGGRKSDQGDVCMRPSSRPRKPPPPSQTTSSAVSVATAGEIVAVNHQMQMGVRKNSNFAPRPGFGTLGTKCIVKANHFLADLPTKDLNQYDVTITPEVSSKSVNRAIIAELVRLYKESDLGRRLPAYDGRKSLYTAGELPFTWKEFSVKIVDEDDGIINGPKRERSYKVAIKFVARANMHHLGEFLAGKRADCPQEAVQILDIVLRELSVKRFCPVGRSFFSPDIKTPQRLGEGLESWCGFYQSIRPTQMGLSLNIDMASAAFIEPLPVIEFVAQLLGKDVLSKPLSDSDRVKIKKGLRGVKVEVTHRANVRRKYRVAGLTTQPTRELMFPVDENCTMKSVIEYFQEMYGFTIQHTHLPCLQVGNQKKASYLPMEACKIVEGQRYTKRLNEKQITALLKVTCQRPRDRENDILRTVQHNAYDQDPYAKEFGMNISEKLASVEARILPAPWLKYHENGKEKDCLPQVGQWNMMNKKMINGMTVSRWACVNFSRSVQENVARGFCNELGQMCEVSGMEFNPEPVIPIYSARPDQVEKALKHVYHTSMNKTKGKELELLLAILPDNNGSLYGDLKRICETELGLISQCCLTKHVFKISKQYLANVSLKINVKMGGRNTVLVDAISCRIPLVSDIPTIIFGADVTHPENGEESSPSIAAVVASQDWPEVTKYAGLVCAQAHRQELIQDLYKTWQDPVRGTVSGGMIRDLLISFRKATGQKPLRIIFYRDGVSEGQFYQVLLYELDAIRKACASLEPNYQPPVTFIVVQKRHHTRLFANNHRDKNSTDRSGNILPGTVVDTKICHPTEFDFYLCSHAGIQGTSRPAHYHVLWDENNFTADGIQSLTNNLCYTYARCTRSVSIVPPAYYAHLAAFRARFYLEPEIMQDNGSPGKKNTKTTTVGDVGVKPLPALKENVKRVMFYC

[2] = biological target: T2, HA:Δ170AGO2 (Arabidopsis thaliana) (UniProt Q9SHF3); test: as above
T2 sequence: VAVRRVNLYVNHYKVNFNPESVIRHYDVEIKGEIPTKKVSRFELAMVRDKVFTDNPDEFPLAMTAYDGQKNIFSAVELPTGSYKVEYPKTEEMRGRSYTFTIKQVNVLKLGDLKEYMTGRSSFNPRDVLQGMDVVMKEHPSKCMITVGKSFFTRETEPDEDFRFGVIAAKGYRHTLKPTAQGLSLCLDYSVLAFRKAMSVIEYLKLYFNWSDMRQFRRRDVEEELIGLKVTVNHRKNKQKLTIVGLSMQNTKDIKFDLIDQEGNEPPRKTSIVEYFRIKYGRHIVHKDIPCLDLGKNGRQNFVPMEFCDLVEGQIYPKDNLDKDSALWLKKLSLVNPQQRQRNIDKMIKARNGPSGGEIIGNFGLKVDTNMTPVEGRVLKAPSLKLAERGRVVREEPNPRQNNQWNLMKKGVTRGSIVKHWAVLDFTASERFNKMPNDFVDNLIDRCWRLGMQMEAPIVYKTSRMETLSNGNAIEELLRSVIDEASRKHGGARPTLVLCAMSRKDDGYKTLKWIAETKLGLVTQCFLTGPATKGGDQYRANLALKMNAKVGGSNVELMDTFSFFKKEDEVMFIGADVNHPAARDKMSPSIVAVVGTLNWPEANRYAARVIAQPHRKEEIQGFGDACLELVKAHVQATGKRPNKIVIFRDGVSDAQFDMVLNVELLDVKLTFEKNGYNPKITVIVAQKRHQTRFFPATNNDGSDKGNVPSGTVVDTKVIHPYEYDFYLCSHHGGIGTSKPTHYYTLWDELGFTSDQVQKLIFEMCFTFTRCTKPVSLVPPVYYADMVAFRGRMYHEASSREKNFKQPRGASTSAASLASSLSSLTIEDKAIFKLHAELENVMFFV

B1: c-Myc-tagged TSN1 (protein, UniProt Q8VZG7 1-991)
chain: MATGAENQWLKGRVKAVTSGDCLVITALSHNRAGPPPEKTITFSSLMAPKMARRGGIDEPFAWESKEFLRKLCIGKEVAFKVDYKVEAIAGREFGSVFLGNENLAKLVVKTGWAKVREPGQQNQDKVSPYIKELLQLEELAKQEGYGRWSKVPGAAEASIRNLPPSAIGDSAGFDAMGLLAANKGKPMEGIVEQVRDGSTIRVYLLPEFQFVQVFVAGVQAPSMGRRTTNGSVVETVPDEPNGDVSAESRGPLTTAQRLAASAASSVEVSSDPFATEAKYFTEHRVLSRDVRIVLEGVDKFNNLIGSVHYSDGETVKDLGLELVENGLAKFVEWSANMMEEEAKKKLKAAELQCKKDKVKMWANYVPPATNSKAIHDQNFTGKVVEVVSGDCLIVADDAVPFGSPAAERRVCLSSIRSPKMGNPRREEKPAPYAREAREFLRQRLIGKQVIVQMEYSRKVTQGDGPTTSGAADRFMDFGSVFLPSAAKADSDEVTAPPAAAIAGSQPVGVNIAELVLVRGFGNVVRHRDFEERSNHYDALLAAEARALAGKKGIHSAKESPAMHITDLTVSAAKKAKDFLPSLQRIRRIPAVVEYVLSGHRFKLYIPKITCSIAFSFSGVRCPGRGEPYSEEAISVMRRRIMQRDVEIEVETVDRTGTFLGSMWESRTNVATVLLEAGLAKMQTSFGADRIAEAHLLEQAERSAKNQKLKIWENYVEGEEVSNGNTNTVETRQKETLKVVVTEVLGGGRFYVQSAGDQKIASIQNQLASLSIKDAPIIGSFNPKRGDIVLAQFSLDNSWNRAMIVTAPRAAVQSPDEKFEVFYIDYGNQETVPYSAIRPIDPSVSAAPGLAQLCRLAYIKVPSLEDDFGPEAGEYLHTVTLGSGKEFKAVIEERDTSGGKVKGQGTGTEFVVTLIAVDDEISVNAAMLQEGIARMEKRQKWGHKGKQAALDALEKFQEEARKSRIGIWQYGDIESDDEDTGPARKPAGGRR
In the case of B1, the binding [1] is reported as “no binding” and the binding [2] is reported as “no binding”.

B2: c-Myc-tagged TSN2 (protein, UniProt Q9FLT0 1-985)
chain: MATGAATENQWLKGRVKAVTSGDCLVITALTHNRAGPPPEKTITLSSLMAPKMARRGGIDEPFAWESREFLRKLCIGKEVAFKVDYKVEAIAGREFGSVYLGNENLAKLVVQNGWAKVRRPGQQNQDKVSPYIAELEQLEEQAQQEGFGRWSKVPGAAEASIRNLPPSAVGDSGNFDAMGLLAASKGKPMEGIVEQVRDGSTIRVYLLPEFQFVQVFVAGLQAPSMGRRQSTQEAVVDPDVTATSNGDASAETRGPLTTAQRLAASAASSVEVSSDPFAMEAKYFTELRVLNRDVRIVLEGVDKFNNLIGSVYYSDGDTVKDLGLELVENGLAKYVEWSANMLDEEAKKKLKATELQCKKNRVKMWANYVPPASNSKAIHDQNFTGKVVEVVSGDCLVVADDSIPFGSPMAERRVCLSSIRSPKMGNPRREEKPAPYAREAKEFLRQKLIGMEVIVQMEYSRKISPGDGVTTSGAGDRVMDFGSVFLPSPTKGDTAVAAAATPGANIAELIISRGLGTVVRHRDFEERSNHYDALLAAEARAIAGKKNIHSAKDSPALHIADLTVASAKKAKDFLPSLQRINQISAVVEYVLSGHRFKLYIPKESCSIAFAFSGVRCPGRGEPYSEEAIALMRRKIMQRDVEIVVENVDRTGTFLGSMWEKNSKTNAGTYLLEAGLAKMQTGFGADRIPEAHILEMAERSAKNQKLKIWENYVEGEEVVNGSSKVETRQKETLKVVVTEVLGGGRFYVQTVGDQKVASIQNQLAALSLKDAPIIGSFNPKKGDIVLAQFSLDNSWNRAMIVNGPRGAVQSPEEEFEVFYIDYGNQEIVPYSAIRPVDPSVSSAPGLAQLCRLAYIKVPGKEEDFGRDAGEYLHTVTLESGKEFRAVVEERDTSGGKVKGQGTGTELVVTLIAVDDEISVNAAMLQEGIARMEKRRRWEPKDKQAALDALEKFQDEARKSRTGIWEYGDIQSDDEDNVPVRKPGRG
In the case of B2, the binding [1] is reported as “no binding” and the binding [2] is reported as “no binding”.
